Some of the results follow. Shown are side measurements of this screen, not its main read-out; they come without a call. The list favours compounds with an active or inconclusive main result. Potencies come from curve fits of mixed quality, noted in brackets.
Assay: qHTS Assay to Find Inhibitors of Chronic Active B-Cell Receptor Signaling
Conditions: ABC-DLBCL IkBa-CBG/CBR reporter, luminescence ratio (green luciferase fused to IkBa over red control in TMD8 lymphoma cells), 4 h
Summary of the method: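 Concentration-response series (up to 46 uM) were applied to TMD8 dual-reporter cells for 4 h at 37C with doxycycline. Green/red ratio, after filter-overlap correction, defined %Activity; red signal alone was normalised to basal cells and zero luminescence.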

[1] = measured here: CBR red luminescence, cell number
[2] = measured here: IkBa-CBG green luminescence

Structure (SMILES) | AC50 [1] | AC50 [2]
CCC(=NCc1ccc(Cl)c(Cl)c1)c1nc(-c2ccco2)oc1O | 13 µM [falling, partial curve] | 
O=C(NCCc1ccccc1F)C(=O)Nc1nccs1 | 2.82 µM [falling, full curve, poor fit] | 
CCOc1ccccc1CNC(=O)CCn1ccc2cc(S(=O)(=O)N3CCCCC3)ccc21 | 2.82 µM [rising, partial curve, poor fit] | 
CN(C)S(=O)(=O)c1ccc(N2CCCC2)c(C(=O)NC(c2ccccc2)c2ccccc2)c1 | 25.9 µM [falling, partial curve, poor fit] | 
Cc1ccc(C(=O)Nc2ccc(O)cc2C(=O)O)cc1C | 1.03 µM [falling, full curve] | 
Cc1cccc(NC(=O)c2cc3ccccc3oc2=O)c1 | 15.8 µM [falling, single point] | 
O=C(Nc1nc2ccccc2s1)C1CCN(C(=O)c2ccco2)CC1 | 2 µM [falling, partial curve, poor fit] | 
CCN(CC)CCn1c(=N)n(CCOc2ccccc2)c2ccccc21 | 18.4 µM [falling, single point] | 
CCOC(=O)c1cc(-c2ccccc2)n(CCC(=O)Nc2nc3c(C)cccc3s2)c1C | 2.24 µM [falling, partial curve, poor fit] | 
O=C(N1CCCCCC1)N1CCN(S(=O)(=O)N2CCOCC2)CC1 | 13 µM [rising, partial curve, poor fit] | 
O=C(Nc1sc2c(c1C(=O)O)CCCCC2)c1ccco1 | 1.12 µM [falling, full curve] | 
CC(C)NC(=O)NC(=O)COc1c(F)c(F)cc(F)c1F | 0.82 µM [rising, partial curve, poor fit] | 
COCCCNC(=O)c1ccc(Cn2c(=O)c3ccccc3n(Cc3ccccc3C#N)c2=O)cc1 | 1.03 µM [rising, full curve, poor fit] | 
COC(=O)N/N=C/c1cn(CC(C)COc2ccccc2)c2ccccc12 (configuration not stated) | 25.9 µM [falling, single point] | 
O=C(CC1SC(=O)N(c2ccccc2)C1=O)Nc1cccc2ccccc12 (configuration not stated) | 20 µM [falling, single point] | 
CN(C(=O)CSc1nc(-c2ccc(C(C)(C)C)cc2)c(C#N)c(=O)[nH]1)C1CCCCC1 | 17.8 µM [rising, single point] | 
COc1ccc(-c2csc(NC(=O)C3COc4ccccc4O3)n2)cc1OC (configuration not stated) | 15.8 µM [falling, single point] | 
CCOC(=O)N1CCC(N2Cc3cccc(C(=O)N4CCN(c5cccc(C)c5C)CC4)c3C2=O)CC1 | 8.91 µM [falling, partial curve] | 
NS(=O)(=O)c1ccc(N/N=C/c2cn(-c3ccccc3)nc2-c2ccccc2)c([N+](=O)[O-])c1 | 2.82 µM [rising, partial curve, poor fit] | 
Cc1cc(-c2cccs2)c2c(n1)sc1c(=O)[nH]c(=O)[nH]c12 | 32.6 µM [rising, single point] | 

Structure (SMILES) | AC50 [1] | AC50 [2]
O=C(COC(=O)c1ccccc1Br)Nc1nnc(-c2ccccc2)o1 | 20.6 µM [falling, single point] | 
CCCOC(=O)c1ccc(-c2ccc(C=O)o2)cc1 | 14.6 µM [falling, partial curve] | 
COc1cc(NC(=O)COC(=O)c2[nH]c(C)c(C(C)=O)c2C)cc(OC)c1 | 18.4 µM [rising, partial curve, poor fit] | 
COC(=O)C(C(=O)OC)c1ccc(-n2cccc2)cc1 | 0.631 µM [rising, full curve, poor fit] | 
CCn1c(=O)c(C(=O)Nc2ccccn2)c(O)c2ccccc21 | 0.355 µM [falling, full curve, poor fit] | 
C=C(C)CNC(=S)N/N=C(\C)c1ccc(OC)cc1 | 9.2 µM [rising, partial curve] | 18.4 µM [falling, single point]
CCOc1ccc(NC(=O)NCc2ccc3c(c2)OCO3)cc1 | 7.94 µM [falling, partial curve, poor fit] | 
O=C(CN1CCOCC1)Nc1nc2ccc([N+](=O)[O-])cc2s1 | 35.5 µM [falling, single point] | 
CC(=O)c1cccc(NC(=O)COc2ccccc2C(=O)c2cc(C#N)c(=O)n(C3CCCCC3)c2)c1 | 1.46 µM [rising, partial curve] | 
O=C(CCc1ccccc1)Nc1nnc(-c2ccc3c(c2)CCCC3)o1 | 4.61 µM [rising, partial curve, poor fit] | 
O=C(NC(NC(=S)Nc1ccc(Cl)c(Cl)c1)C(Cl)(Cl)Cl)c1ccco1 (configuration not stated) | 35.5 µM [falling, single point] | 22.4 µM [rising, single point]
COc1ccc2c(c1)cc(C(=O)N[C@@H](Cc1ccccc1)C(=O)O)n2C | 2.51 µM [falling, partial curve, poor fit] | 
CC(C)OC(=O)c1cccnc1SCC(=O)Nc1ccc(C(F)(F)F)cc1Cl | 3.16 µM [rising, full curve] | 
CN(Cc1ccccc1)c1ccc2nnc(-c3ccccc3)n2n1 | 20.6 µM [falling, single point] | 
Oc1ccc2ccccc2c1CN1CCN(C/C=C/c2ccccc2)CC1 | 11.2 µM [falling, single point] | 
C/C(CC(=O)Nc1cc(Cl)ccc1Cl)=N\NC(=O)c1ccccc1Br | 7.94 µM [falling, partial curve] | 
COc1ccc(NC(=O)Nc2ccccc2SC)cc1OC | 14.1 µM [falling, partial curve, poor fit] | 
CC(C)=CC(=O)OCC(=O)Nc1cc(C)ccc1C | 6.31 µM [rising, partial curve, poor fit] | 
O=C(COC(=O)c1cccs1)c1ccc2ccccc2c1 | 29.1 µM [falling, single point] | 
O=c1c2ccccc2[nH]c(=S)n1CCC1=CCCCC1 | 0.58 µM [rising, full curve, poor fit] | 

Part of the list above, reformatted.
Structure (SMILES),AC50 [1],AC50 [2]
C/C(CC(=O)Nc1cc(Cl)ccc1Cl)=N\NC(=O)c1ccccc1Br,"7.94 µM [falling, partial curve]",
COc1ccc(NC(=O)Nc2ccccc2SC)cc1OC,"14.1 µM [falling, partial curve, poor fit]",
